{"source": "patent US20080081794A1", "about": "“SMG-1 BINDING PROTEIN AND SCREENING METHOD FOR SUBSTANCES THAT CAN REGULATE THE ACTIVITY THEREOF” (JAPAN SCIENCE AND TECHNOLOGY AGENCY, priority 2002, published 2008)", "tested_on": "hSMG-1", "experiment": "Phosphorylation in anti-hSMG-1 immunoprecipitates of HeLa cell extract (autoradiography)", "type": "biochemical, human", "settings": "in the presence of wortmannin (1 mmol/L in 2x kinase reaction solution); antiserum C immunoprecipitate; FIG. 1", "note": "At least one compound was matched to its structure with a doubt left.", "data": [{"smiles": "COC[C@H]1OC(=O)c2coc3c2[C@@]1(C)C1=C(C3=O)[C@@H]2CCC(=O)[C@@]2(C)C[C@H]1OC(C)=O", "note": "[wortmannin]", "values": [{"measurement": "phosphorylated bands at 400 kDa and 430 kDa (autophosphorylated hSMG-1)", "value": "remarkably decreased"}]}]}
